Screen size: about 53,000 sequences; about 3,700 (7%) were called active.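 How the source made its calls: active means gene knockdowns whose robust z-score for IL-1 alpha signal is at least 2 or at most -2, so actives lie on both sides; inactive means the rest.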 This is one part of the list.
Experiment: Components of the Cytosolic LPS Sensing Pathway: Gene Identification via Genome-wide siRNA Screen;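 further: robust z of the log signal after scaling to non-targeting control siRNA wells of the plate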
Settings: RAW264.7 macrophages, IL-1a HTRF, actives lie on both sides, screened at 100 nM (by protocol), cells primed 5 h with Pam3CSK4 first
In short: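 Knockdown: 100 nM siRNA, 48h, RAW264.7. Stimulation: Pam3CSK4 5 h, then LipidA via TransIT-TKO 24 h. Output: supernatant IL-1a HTRF, negative-control-normalized, log robust z-score; viability by CellTiter-Glo.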

Row | Sequence | z-score
1 | GGAACUGAUAACCAGCCAGTT against Nhej1 | inactive: -1.28
2 | GCCUUUAUUAAGGUUGAAATT against Vcl | inactive: -1.23
3 | GGCUUCAUCAAGGUUCAGCTT against Rassf1 | inactive: -0.961
4 | CCAAGUCACGCACCAAAAATT against Zfp64 | inactive: -0.538
5 | GAUCUUAUAUGUUGGUGGUTT against Vmn1r29 | inactive: -0.31
6 | GGGAAGCUUUUCUUAUCAGTT against V1rb6 | inactive: -0.447
7 | GGAGAAGCCUGGAAGGAAATT against Smim11 | inactive: -0.205
8 | CCAAACUAUACUGACAGGUTT against Ppp4r2 | inactive: 1.18
9 | GCGGCGAAAAAGAUGCAUGTT against Hbq1a | inactive: -0.522
10 | CGCUCCAUUGCUCAGUAUUTT against Vtn | inactive: 1.63
11 | GGAAAACAUUAAGAGUACATT against Kdelr3 | inactive: 0.127
12 | GGAACGUGAUGAAGUGGUCTT against Tex13c3 | inactive: 0.0524
13 | CGUCCUGUCGCUGAUUAAATT against Tcl1 | inactive: 0.323
14 | GCCACGUACAACCUCUUCUTT against Grhl3 | inactive: 1.43
15 | GGCAAUGAGUUCUGGAGUGTT against Capn8 | inactive: -0.928
16 | GGUGCUGUUGGUAUAUUAUTT against Ssr2 | inactive: -1.27
17 | GGAAAACACCGCAUAUAAUTT against Ss18l1 | inactive: 0.43
18 | CCUACUAAACUCAGUCUUUTT against Kap | inactive: 1.08
19 | GGACUUACAAUCCACCAGATT against Hpgds | inactive: 0.174
20 | GGAUCUGAGUGCUCUACUGTT against Kctd20 | active: 2.08
21 | GGAGAGGAAGCCUAUGAACTT against Zfp180 | inactive: -0.768
22 | GUUCAUUCUUGAAGGCCUGTT against Olfr1039 | inactive: 0.23

Row | Sequence | z-score
23 | CGGUCAAUACAAAUGCACUTT against Fcrl5 | inactive: 1.06
24 | GGAAGCUGAACUCCUGAAATT against Stmn4 | inactive: -1.05
25 | GGGAAAGCAGAUCCACAACTT against Adh1 | inactive: -0.351
26 | GGAAUUUGCCAAAGACCUGTT against Phf13 | inactive: -0.763
27 | GCCAGUUUAAGUCUCUCCATT against Tmem168 | active: -2.37
28 | GCUAAGUAAUCAAUUGCUATT against Bhlhe40 | inactive: 0.448
29 | GGUGGAAUAUUUCAUGGACTT against Csnk2a1 | active: 3.43
30 | GGACAACUAUUUUGUGAGATT against Kcnj9 | inactive: 0.0557
31 | GGCAAAUCAUUGAUCAGAATT against Mtrf1 | inactive: -0.214
32 | CCAGUAAGGCUUUUAUAUATT against Hjurp | inactive: -0.0758
33 | GCUAUCGAUUGUUACACCGTT against Adrb2 | inactive: 0.686
34 | GGUUAUCGGUUGUACAUAUTT against Chd3 | inactive: 1.03
35 | CCUGGUUAUAACUCUAAAGTT against Rad54l | inactive: 0.652
36 | GGGAAAAAAAAGCUCUUAATT against Usp43 | inactive: 0.441
37 | CGAGGUCUGUGCUUAUGAGTT against Tcaf1 | inactive: 0.0249
38 | GGAGUUCUUGGUCUCUUUGTT against Fam214a | inactive: -0.124
39 | GCUUAACUCUAGAGUAUGCTT against Pzp | inactive: 1.11
40 | GGUCCUUACCUCCAAUCCATT against Fndc5 | inactive: -0.877
41 | GCAACUCUGAGGUUGCUAGTT against Pgam1 | inactive: -0.12
42 | GCUAGUAUUAAAGAAGAGCTT against Myh10 | inactive: 0.803
43 | GGUUCAACUCUCUUUUUGATT against Atp8b5 | inactive: 0.347
44 | CCGUGGGAUUUAAGAUAUCTT against Rab34 | inactive: -0.931

As entered above.
For z-score, GGGAAAGCAGAUCCACAACTT against Adh1 has the entry inactive: -0.351
For z-score, GCUAAGUAAUCAAUUGCUATT against Bhlhe40 has the entry inactive: 0.448

The listing continues.

Row | Sequence | z-score
45 | CCUCGCUAUAGAUUUUAACTT against Art2b | inactive: -0.0958
46 | GGUUAUACCAGUCAUGACATT against BC005537 | inactive: -0.204
47 | GGUUACUGCUACCUAUAACTT against Myot | inactive: 0.59
48 | GGCUGGAAAAAAUUCAGAATT against Mtmr7 | inactive: 1.52
49 | GGAGAAAGAAUUCAUUUCCTT against Dync1h1 | inactive: 0.387
50 | CCUUCUGAAACCUAGCUCATT against Tradd | inactive: -1.4
51 | GGAAGUGGUGGCCAUCAAGTT against Stk25 | inactive: 1.08
52 | CCAUCAUGUAUCAAUGACATT against Olfr867 | inactive: -1.26
53 | CGUAAUUUUGGAAAAGCCUTT against Emb | inactive: 0.246
54 | CGAGACCUACAUCUUGAAUTT against Smpd1 | inactive: 1.12
55 | GGCCAUGCCACUCAUCUUUTT against Tpst2 | inactive: -1.31
56 | GGACUGAAUGCAAGUGAAGTT against Mslnl | inactive: -0.379
57 | GGAGACUCAGCAGAUUAUUTT against Gzmn | inactive: -0.627
58 | GGCAAUGAAUUUAACAAUCTT against Zfp874a | inactive: -0.351
59 | GGAUGGCCAAGUAUGAACUTT against Gpr153 | inactive: -0.529
60 | GCUUACAAGCUGGUAUCAUTT against Gm5134 | inactive: -0.564
61 | CGAUACCCUCACCAGAUUUTT against Limk1 | inactive: 1.79
62 | GCCUUCUGCUUAGUUACUGTT against Krtap6-1 | inactive: 1.21
63 | GGCUCCAGGAAACAAAGAUTT against Ubtd1 | inactive: 0.206
64 | GGAAGAAAGGAAAUGUUGUTT against Ctsh | inactive: -0.179
65 | GGAAUCCUCUUCAGACAAATT against Hivep1 | inactive: 0.818
66 | GGCCUUGUAUUACCAUCGATT against Ppp1r9b | inactive: 0.0508

Two entries drawn at random from those above, as already listed:
Row | Sequence | z-score
62 | GCCUUCUGCUUAGUUACUGTT against Krtap6-1 | inactive: 1.21
52 | CCAUCAUGUAUCAAUGACATT against Olfr867 | inactive: -1.26

Additional results follow.

Row | Sequence | z-score
67 | CCGUCAAAACAUUACCAUUTT against Hmcn2 | inactive: -0.363
68 | GGGUGUGGCUGACUUUGAUTT against Otof | inactive: -0.429
69 | GAUGCAAGAUGACAAGACATT against Rgs6 | inactive: -0.541
70 | CCUGACAGACCGACAAGUGTT against Hoxc11 | active: -2
71 | GGUCCCUGUCAAGACCAAATT against Prap1 | inactive: 0.921
72 | GGAGUAUGCACCACUCAAATT against Acrv1 | inactive: 0.795
73 | CGGAAAAAUGGAAGUAUAGTT against Mrtfb | inactive: -0.687
74 | GCCAUGAGGUCUGUUCUUATT against Ubr3 | inactive: -0.572
75 | GCACCACUGCCUAUAUAAGTT against Acad8 | inactive: -1.36
76 | GGUGAAGUGAGCCUUUGUGTT against Cfhr1 | inactive: -0.329
77 | GGGUCUAAAGAUAUCUGUUTT against Rbm12 | inactive: -0.898
78 | CCAUUUGUCUAUGAAUGUGTT against Tm6sf1 | inactive: -0.901
79 | CGAGGAGUUGGAUUUCAGGTT against Dnmbp | inactive: -0.713
80 | GCAAGGAGGUCCAACUAAGTT against Fzd8 | inactive: 0.239
81 | CCCUAACACUGCUACCACGTT against Zfp36l3 | inactive: -0.417
82 | GCCUUCCACUACCUUACGUTT against Kcnk3 | inactive: 0.067
83 | GCCUUAGGGAGUGUUAAAATT against Spink8 | inactive: -0.304
84 | GGUCCACCUGUGAAUGUGATT against Glra4 | inactive: -1.1
85 | GCUGUCAAAUUAACCUGUGTT against Spin2c | active: -2.31
86 | GGGUGUUUGAAUCUAGUAUTT against Nktr | inactive: 1.22
87 | GCUUCAGACCUAUUUACCATT against Wdr26 | inactive: 0.0713
88 | GACCAAGUUCAAAAUUCGATT against Lilr4b | inactive: -0.884

Row | Sequence | z-score
89 | CCCUACUAUUGACGAAAACTT against Hpn | inactive: 1.66
90 | CCUUAAAUGUGGACCAUAATT against Dlc1 | inactive: 0.508
91 | CCCUUACAUCCAUCAACUATT against Dcbld2 | inactive: -1.04
92 | GGCCAAAAGUGUUCUCUACTT against Olfr1101 | inactive: 0.294
93 | GGAAAUCAACCACUUUCUCTT against Olfr1494 | inactive: -0.549
94 | GGCUAUAAAAGCACAGUUUTT against Slc25a26 | inactive: -0.61
95 | GGAGCAGAAAGAAGAACUGTT against Bmp10 | inactive: -1.79
96 | GGCACAAGCCAAAGUAUUUTT against Igbp1 | inactive: -0.529
97 | GGGAAGUGACCUUCUACAGTT against Ms4a10 | inactive: 0.387
98 | GCAGAUUAGCUUCGUCAACTT against Top2a | inactive: -0.588
99 | GCUCAUCGACGGUCACUUUTT against Enoph1 | inactive: -0.00997
100 | CGAACCUAAGGGUUACUAUTT against Tgfb3 | inactive: 0.592
101 | GGAUGGUUUCCGUAAAGCUTT against Pacsin3 | inactive: -1.23
102 | GGCUUGAAGUUCAUUUAUUTT against Nkiras2 | inactive: -1.03
103 | GGUGCAAAUGGCAGAUACATT against Olfr919 | inactive: -0.873
104 | GCAUUAUGGGACUAGAAGGTT against Scfd1 | inactive: 1.92
105 | CCUGAUAUAUGACUUUGGCTT against Ntf5 | inactive: -0.734
106 | GCACAGCUAUCAAUGAGCUTT against Olfr1410 | inactive: -1.43
107 | GCUCACAAGCAAGUGCAACTT against Olfr1352 | inactive: 0.763

Given in CSV form: part of the list above.
Row,Sequence,z-score
62,GCCUUCUGCUUAGUUACUGTT against Krtap6-1,inactive: 1.21
63,GGCUCCAGGAAACAAAGAUTT against Ubtd1,inactive: 0.206
64,GGAAGAAAGGAAAUGUUGUTT against Ctsh,inactive: -0.179
65,GGAAUCCUCUUCAGACAAATT against Hivep1,inactive: 0.818
